Laboratory results taken from PubChem BioAssay AID504834 (National Center for Advancing Translational Sciences (NCATS), 2011).
Among all 320,000 compounds or so, about 22,000 (6.9%) were called active. Inconclusive results, whose numbers are uncertain, are shown with a selection of clear calls. The call rests on the fitted dose curve; in most records, active means well fitted inhibition curve with a large enough effect; inconclusive means small, poorly fitted or top-dose-only effect, or another doubt; inactive means no such curve, though single readings can be large or run the other way. Potencies of inconclusive entries are doubtful fits and often do not repeat.

Test: Primary qHTS for delayed death inhibitors of the malarial parasite plastid, 96 hour incubation
Conditions: P. falciparum luciferase reporter growth; series mostly up to 28.7 µM
Method in brief: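 Erythrocytes infected with luciferase-expressing P. falciparum were dispensed at 2% hematocrit and 0.05% parasitemia (final), then incubated with compounds 96 hours at 37 C in 5% CO2. Luminescence after detection reagent addition reported growth.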
On the % scale 0 is the no-effect control and ±100 the full control effect; potency means the concentration at half of the fitted maximal effect.

| Structure (SMILES) | Potency | activity change, negative = inhibition |
| --- | --- | --- |
| O=C1CCC/C(=N/NC(=O)C2CCN(S(=O)(=O)c3cccs3)CC2)C1 | inactive | – |
| CC(C)(C)N(Cc1ccccc1)C(=O)COC(=O)c1cccc([N+](=O)[O-])c1 | inactive | – |
| O=C(c1ccc(Cl)c(Cl)c1)N1CCC(=O)N(C(COCc2ccccc2)Cc2ccccc2)CC1 (stereo not given) | active: 11.7 µM | – |
| Cc1ccc(N2C(=O)NC(=O)/C(=C/c3cnc(-c4ccccc4)nc3)C2=O)cc1C | inactive | – |
| CSCCC(NC(=O)c1ccco1)C(=O)NCc1ccc2c(c1)OCO2 (stereo not given) | inactive | – |
| COc1ccc(CC(=O)Oc2ccc(Cl)cc2Br)cc1S(=O)(=O)N1CCOCC1 | inactive | – |
| CCOC(=O)C1(Cc2ccc(Cl)cc2)CCN(C(C)Cc2ccc(O)c(OC)c2)CC1 (stereo not given) | inconclusive: 18.5 µM [inhibitor, single point] | – |
| COCCCNC(=S)N1CCC(NC(=O)c2ccco2)CC1 | inactive | – |
| CC1CCCCN1C(=O)CCS(=O)(=O)c1cccc2nonc12 (stereo not given) | inconclusive: 0.657 µM [inhibitor, partial curve, poor fit] | – |
| O=C(COC(=O)COc1ccc2ccccc2c1)Nc1cc(C(F)(F)F)ccc1N1CCOCC1 | inactive | – |
| Cc1ccc(Nc2nnc(SCC(=O)Nc3cccc(S(=O)(=O)NC4=NCCCCC4)c3)s2)cc1 | inconclusive: 4.15 µM [inhibitor, partial curve, poor fit] | – |
| Cc1cc(C)nc(-n2nc(C)c3c(C(F)(F)F)cc(=O)[nH]c32)n1 | – | inactive: 19.3% [at 5.75 µM] |
| CC(C)[C@H](NC(=O)c1ccco1)C(=O)OCc1cc(=O)n2c(n1)sc1ccccc12 | inactive | – |
| O=C(CSc1nnc(-c2cccnc2)n1C1CCCCC1)NC1CCCCC1 | inconclusive: 9.28 µM [inhibitor, partial curve, poor fit] | – |
| C/C(Cn1nc([N+](=O)[O-])cc1C)=N\NC(=O)COc1ccc(Cl)cc1Cl | inactive | – |
| NNC(=O)COc1ccc(-c2n[nH]c(C(F)(F)F)c2-c2ccc(Br)cc2)c(O)c1 | active: 8.28 µM | – |
| COc1ccccc1CNC(=O)CCc1c(C)nc2cc(-c3ccccc3OC)nn2c1C | inconclusive: 11.7 µM [inhibitor, single point] | – |
| O=c1c2ccccc2nc2n1CCS2 | inconclusive: 18.5 µM [inhibitor, single point] | – |
| O=C(OCC(=O)N1CCCC1)c1cc2c(cc1[N+](=O)[O-])OCCO2 | inconclusive: 18.5 µM [inhibitor, single point] | – |
| CS(=O)(=O)c1ccc2nc(NC(=O)Nc3cccc(Cl)c3)sc2c1 | inconclusive: 18.5 µM [inhibitor, single point] | – |

2 entries from above in another layout.
Structure (SMILES),Potency,"activity change, negative = inhibition"
CSCCC(NC(=O)c1ccco1)C(=O)NCc1ccc2c(c1)OCO2 (stereo not given),inactive,–
C/C(Cn1nc([N+](=O)[O-])cc1C)=N\NC(=O)COc1ccc(Cl)cc1Cl,inactive,–
